Test results from publication PMC9698323, “Interaction of Destruxin A with Three Silkworm Proteins: BmCRT, BmDPP3, and BmPDIA5” (Molecules, 2022).

Target: protein disulfide isomerase A5 (BmPDIA5) (silkworm (Bombyx mori))
Assay: two-hybrid; insect two-hybrid (I2H) in Sf9 cells transfected with pIE2-AD and pIE2-DBD expression vectors; luciferase luminescence against cells not transfected; cells also treated with Destruxin A (0.002-20 mg/L), which lowered the signal at 0.2 mg/L and above

- binding: binds
B1: calreticulin (BmCRT) (protein, UniProt Q7Z1E6 1-398)
chain: MKAVVLVVVSLLALSSINCDVFFEEKFPDDSWESNWVYSEHPGKEFGKFKLTAGKFFSDPEDDKGLKTSEDARFYALSRKFKPFSNEGKPLVVQFTVKHEQDIDCGGGYLKVFDCKLEQKDMHGETPYEIMFGPDICGPGTKKVHVIFSYKGKNHLIKKDIRCKDDVYTHLYTLIVKPDNTYEVLIDNEKVESGDLEADWDFLPNKKIKDPEAKKPEDWDDKPTIPDPEDKKPEDWDKPEHIPDPDATKPEDWDDEMDGEWEPPMIDNPDYKGVWAPKQIDNPAYKGPWVHPEIDNPEYTPDSNLYKRDEICAVGLDLWQVKSGTIFDDFLITDDPAAAKERGEVIKKRQEGEKKMKSEQDEAEREKEKAEKPDDEEDDEDLDDETGDAAPVEEHDEL

These are yes or no findings as the source states them, for the method shown. Binding can be weak; no strength is given.
